Here are results for two substances from PMC9935549.

Chains of the proteins cited; added tags and fusions are not shown. Lines headed by an entry give the natural chain unless they say otherwise; changes in a name come on top.
UniProt O75533: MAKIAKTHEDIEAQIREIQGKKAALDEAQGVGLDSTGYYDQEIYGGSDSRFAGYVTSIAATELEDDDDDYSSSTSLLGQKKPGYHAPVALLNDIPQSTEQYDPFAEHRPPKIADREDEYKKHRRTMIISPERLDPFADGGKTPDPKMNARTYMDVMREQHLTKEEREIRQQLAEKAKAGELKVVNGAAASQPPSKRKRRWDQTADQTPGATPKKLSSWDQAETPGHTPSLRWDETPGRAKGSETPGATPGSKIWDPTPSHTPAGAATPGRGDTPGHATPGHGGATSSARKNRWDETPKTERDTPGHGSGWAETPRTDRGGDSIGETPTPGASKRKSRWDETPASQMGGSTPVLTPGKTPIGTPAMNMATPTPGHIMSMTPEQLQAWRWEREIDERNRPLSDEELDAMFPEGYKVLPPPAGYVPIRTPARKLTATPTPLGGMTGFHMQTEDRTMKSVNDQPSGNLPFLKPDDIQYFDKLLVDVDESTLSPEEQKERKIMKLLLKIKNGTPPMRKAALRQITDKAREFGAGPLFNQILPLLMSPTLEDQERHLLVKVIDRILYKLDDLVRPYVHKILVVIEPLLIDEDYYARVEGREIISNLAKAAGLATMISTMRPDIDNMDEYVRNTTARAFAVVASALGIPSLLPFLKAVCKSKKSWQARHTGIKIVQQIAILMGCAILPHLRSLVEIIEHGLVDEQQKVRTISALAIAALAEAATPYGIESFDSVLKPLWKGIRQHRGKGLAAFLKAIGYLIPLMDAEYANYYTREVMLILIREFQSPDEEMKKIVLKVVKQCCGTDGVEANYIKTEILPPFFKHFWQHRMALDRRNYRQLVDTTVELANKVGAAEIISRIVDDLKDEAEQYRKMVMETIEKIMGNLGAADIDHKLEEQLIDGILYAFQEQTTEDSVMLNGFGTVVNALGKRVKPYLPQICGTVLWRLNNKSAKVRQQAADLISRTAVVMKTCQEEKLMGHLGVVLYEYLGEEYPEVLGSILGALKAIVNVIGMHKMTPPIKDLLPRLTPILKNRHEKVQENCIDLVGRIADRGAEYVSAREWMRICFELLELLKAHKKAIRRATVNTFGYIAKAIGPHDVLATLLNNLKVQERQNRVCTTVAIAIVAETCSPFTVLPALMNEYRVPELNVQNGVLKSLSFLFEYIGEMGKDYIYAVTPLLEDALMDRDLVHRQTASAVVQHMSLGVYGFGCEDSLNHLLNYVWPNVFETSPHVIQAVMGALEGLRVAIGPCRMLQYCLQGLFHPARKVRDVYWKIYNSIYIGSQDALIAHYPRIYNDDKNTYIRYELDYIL
UniProt Q9BWJ5: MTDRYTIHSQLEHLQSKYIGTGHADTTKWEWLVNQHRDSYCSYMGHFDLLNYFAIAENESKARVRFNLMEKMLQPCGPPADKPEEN
UniProt Q15393: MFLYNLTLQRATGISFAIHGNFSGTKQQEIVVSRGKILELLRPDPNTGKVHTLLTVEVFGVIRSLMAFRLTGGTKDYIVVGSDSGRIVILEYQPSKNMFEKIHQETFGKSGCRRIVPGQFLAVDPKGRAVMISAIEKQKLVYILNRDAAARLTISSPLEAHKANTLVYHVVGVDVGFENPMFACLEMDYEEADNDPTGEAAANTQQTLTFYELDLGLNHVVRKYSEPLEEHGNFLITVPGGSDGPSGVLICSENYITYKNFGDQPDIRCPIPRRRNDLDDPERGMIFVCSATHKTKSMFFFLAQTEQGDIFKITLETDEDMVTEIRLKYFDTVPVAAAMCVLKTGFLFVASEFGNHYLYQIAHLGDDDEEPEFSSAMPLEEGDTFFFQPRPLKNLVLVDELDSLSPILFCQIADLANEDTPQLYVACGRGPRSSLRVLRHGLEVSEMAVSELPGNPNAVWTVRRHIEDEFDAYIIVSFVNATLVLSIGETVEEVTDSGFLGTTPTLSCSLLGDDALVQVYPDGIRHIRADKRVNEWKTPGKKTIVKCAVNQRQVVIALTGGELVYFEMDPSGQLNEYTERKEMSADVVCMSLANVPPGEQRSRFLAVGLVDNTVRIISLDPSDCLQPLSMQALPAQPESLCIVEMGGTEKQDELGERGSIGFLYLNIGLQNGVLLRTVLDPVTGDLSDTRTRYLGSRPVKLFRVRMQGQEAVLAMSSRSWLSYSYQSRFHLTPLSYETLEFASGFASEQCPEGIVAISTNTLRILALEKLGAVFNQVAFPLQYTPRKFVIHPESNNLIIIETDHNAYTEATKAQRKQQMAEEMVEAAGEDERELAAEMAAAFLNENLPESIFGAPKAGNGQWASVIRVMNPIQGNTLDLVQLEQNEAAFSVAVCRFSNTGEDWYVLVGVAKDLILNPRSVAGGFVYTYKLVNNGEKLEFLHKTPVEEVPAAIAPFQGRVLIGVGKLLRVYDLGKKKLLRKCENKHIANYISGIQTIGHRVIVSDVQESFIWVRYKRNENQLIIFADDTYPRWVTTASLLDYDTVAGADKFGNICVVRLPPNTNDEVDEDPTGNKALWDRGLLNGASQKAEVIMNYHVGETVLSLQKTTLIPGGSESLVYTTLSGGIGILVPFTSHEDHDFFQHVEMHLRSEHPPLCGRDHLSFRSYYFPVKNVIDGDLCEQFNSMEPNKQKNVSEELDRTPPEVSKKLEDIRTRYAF
UniProt Q86XP3: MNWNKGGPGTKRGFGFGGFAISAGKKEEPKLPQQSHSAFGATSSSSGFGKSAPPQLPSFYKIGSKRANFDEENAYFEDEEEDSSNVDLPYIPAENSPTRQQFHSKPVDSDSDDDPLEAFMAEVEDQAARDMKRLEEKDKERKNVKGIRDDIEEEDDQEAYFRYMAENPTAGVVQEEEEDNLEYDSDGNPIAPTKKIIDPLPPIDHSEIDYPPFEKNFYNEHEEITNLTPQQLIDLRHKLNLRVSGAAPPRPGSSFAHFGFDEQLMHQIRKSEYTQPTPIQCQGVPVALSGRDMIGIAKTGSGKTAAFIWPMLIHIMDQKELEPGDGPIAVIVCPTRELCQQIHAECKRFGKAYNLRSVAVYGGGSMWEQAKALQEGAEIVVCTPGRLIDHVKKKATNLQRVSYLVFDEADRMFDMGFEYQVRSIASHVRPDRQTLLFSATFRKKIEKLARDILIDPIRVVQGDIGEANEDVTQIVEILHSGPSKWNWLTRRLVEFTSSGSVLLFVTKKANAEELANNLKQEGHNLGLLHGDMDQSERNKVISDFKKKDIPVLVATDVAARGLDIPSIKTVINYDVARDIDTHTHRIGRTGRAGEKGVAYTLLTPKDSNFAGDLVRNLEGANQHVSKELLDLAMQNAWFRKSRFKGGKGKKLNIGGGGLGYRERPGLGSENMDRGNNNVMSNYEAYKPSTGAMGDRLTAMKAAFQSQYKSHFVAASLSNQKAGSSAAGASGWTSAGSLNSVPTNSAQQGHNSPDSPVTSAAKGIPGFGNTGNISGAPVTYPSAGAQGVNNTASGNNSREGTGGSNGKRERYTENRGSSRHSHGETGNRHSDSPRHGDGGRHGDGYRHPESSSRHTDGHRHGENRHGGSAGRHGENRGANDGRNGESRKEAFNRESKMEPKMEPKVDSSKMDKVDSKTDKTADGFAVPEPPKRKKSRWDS

Results are given in words; binding and its absence hold for the method and conditions named. Some binding calls cover weakened binding; strength is not graded here.

Assay [1] deals with SF3B1 (endogenous, HEK293F, in the DDX42-U2 complex) (human (endogenous in HEK293F)) (UniProt O75533). As to the kind of experiment: cryo-EM structure; DDX42-U2 complex: Flag-DDX42 expressed in HEK293F, anti-Flag selection of endogenous complexes, glycerol gradient with 0–0.1% glutaraldehyde; 2.7 Å.
The target in assay [2] is truncated SF3B1 (residues 454–1304) (human) (UniProt O75533). As to the kind of experiment: cryo-EM structure; DDX42-SF3b complex: five proteins co-expressed in HEK293F, tandem affinity (anti-Flag, Strep-Tactin), SEC, cross-linked with 0.5 mM BS3; 2.6 Å.
Assay [3] has as its target SF3B5 (full-length, Flag tag) (human) (UniProt Q9BWJ5). Described as above.
For assay [4], the target named is SF3B3 (full-length, Twin-Strep tag) (human) (UniProt Q15393). The assay is described as above.

As to “Flag-DDX42 (full-length) (from UniProt Q86XP3 1-938)”, the binding result in assay [1], in assay [2], in assay [3] and in assay [4] was “binds” in each case.

As to “truncated SF3B1 (residues 454–1304) (from UniProt O75533 454-1304) (domain or fragment)”, the binding entry in assay [4] is given as “binds”.
